In PubChem BioAssay AID2685 (National Center for Advancing Translational Sciences (NCATS), 2010):
The other results are listed elsewhere or left out. The main result of the screen is listed elsewhere. These columns were measured beside it and carry no call. The list favours compounds with an active or inconclusive main result. Words in brackets tell the shape of the fitted curve; partial curves, single points and poor fits give uncertain potencies.

Test: qHTS Assay for Lipid Storage Modulators in Drosophila S3 Cells;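 on cell number change: cells counted by Cell Tracker Red CMTPX staining in the red channel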
Conditions: BODIPY lipid droplet fluorescence, 18-24 h; for cell number change: measured here: cell count max response, cells fed with added oleic acid
Method in brief: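 Drosophila S3 cells got compounds at several concentrations plus oleic acid (400 uM solution). Laser-scanning cytometry with 488 nm excitation read lipid droplets at 500-530 nm and cells at 575-640 nm. Percent activity was relative to 20 uM Triacsin C.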

[1] = measured here: lipid fluorescence (Fed channel) AC50, cells fed with added oleic acid
[2] = measured here: cell number channel AC50, cells fed with added oleic acid

Row | Compound | cell number change | AC50 [1] | AC50 [2]
1 | CN1CCN(C(=O)CN(c2cccc(Cl)c2)S(=O)(=O)c2ccccc2)CC1 | 21.8% | 29.1 µM [falling, single point] | –
2 | Fc1ccc(Br)cc1/C=N/N1CCN(c2ccccc2)CC1 | -6.93% | 6.51 µM [rising, single point] | –
3 | COc1ccc(/C=C2/CCc3ccccc3C2=O)cc1CN1CCOCC1 | -36.3% | – | 32.6 µM [falling, single point]
4 | Cc1ccccc1NC(=O)CSc1nn2c(=O)c(C)nnc2s1 | – | – | 0.00461 µM [rising, full curve, poor fit]
5 | Cc1ccc(C(=O)N/N=C/c2ccc(-c3ccc(Br)cc3[N+](=O)[O-])o2)o1 | -33.4% | – | 29.1 µM [falling, single point]
6 | NC(N)=NS(=O)(=O)c1ccc(NC(=S)NC(=O)/C=C/c2ccccc2)cc1 | -7.62% | 9.2 µM [rising, partial curve] | –
7 | O=C(COCc1cc(-c2ccc3c(c2)OCO3)on1)N1CCCCC1 | 29.7% | 6.51 µM [rising, single point] | –
8 | CCOC(=O)NN=C1c2ccccc2-c2ccccc21 | 13.7% | 29.1 µM [falling, single point] | –
9 | COc1ccc(CC2(CO)CCN(Cc3cnn(-c4ccc(F)cc4)c3)CC2)cc1 | 3.12% | 0.0259 µM [falling, full curve, poor fit] | –
10 | CCOC(=O)c1c(C)c(C(=O)NCCOC)c(C)n1CC | – | – | 3.66 µM [falling, single point]
11 | CSc1nc(N)nc(SCC(=O)OC(C)C)c1C#N | -8.99% | – | –
12 | COc1cc(/C=N/NC(=O)c2nnn(-c3nonc3N)c2C(C)C)ccc1OCc1ccc(F)cc1 | 29.5% | – | –
13 | COc1ccccc1NC(=O)c1ccc(S(=O)(=O)N2CCCC(C)C2)cc1 (centres undefined) | – | 0.651 µM [falling, full curve, poor fit] | 0.116 µM [rising, full curve, poor fit]
14 | O=C(Nc1ccccc1C(=O)NCC1CCCO1)c1ccccc1 (centres undefined) | -11.4% | 0.92 µM [rising, full curve, poor fit] | –
15 | Cc1ccc(NC(=O)CCCCCN2C(=O)c3ccccc3C2=O)nc1 | 18.4% | – | –
16 | O=C(NCCCSc1ccccc1)c1cnc(Cl)c(Cl)c1 | 1.28% | – | –
17 | Cc1csc(C(=O)NN)c1N(C)C | 40.9% | – | 6.51 µM [rising, partial curve, poor fit]
18 | Cc1ccc(OCc2nnc(NC(=O)c3ccco3)s2)c(C)c1 | -12.4% | 0.651 µM [falling, single point] | –
19 | Cc1c(CCC(=O)NC2CC2)c(=O)oc2cc(O)ccc12 | -2.03% | 0.92 µM [rising, single point] | –
20 | CCOc1ccccc1N(CC(=O)Nc1cc(OC)ccc1OC)S(=O)(=O)c1ccccc1 | 26.7% | – | –
21 | CC1(C)CC(NCCC(c2ccccc2)c2ccco2)CCO1 (centres undefined) | 14% | – | –
22 | COc1ccc(OC)c(-c2csc(NC(=O)COC(=O)C3CC3)n2)c1 | 28.1% | 29.1 µM [falling, single point] | –

Row | Compound | cell number change | AC50 [1] | AC50 [2]
23 | CC1(C)CC(=O)C(CC(=O)Nc2cc(C(F)(F)F)ccc2Cl)C(=O)C1 | -63.5% | 4.61 µM [falling, single point] | –
24 | COc1ccc(OCc2cc(C(=O)NC(C)c3csc(C)n3)no2)c(Cl)c1 (centres undefined) | -0.494% | 6.51 µM [rising, single point] | –
25 | COc1ccc(OCCCC(=O)Nc2nc(C)c(C(C)=O)s2)cc1 | 4.42% | – | –
26 | CC(C)(C)NC(=O)CN1CCCN(C(=O)c2cccc(S(=O)(=O)N3CCc4ccccc43)c2)CC1 | -10.2% | 29.1 µM [falling, single point] | –
27 | COc1ncccc1C(=O)NC1CCCc2c1cnn2-c1cc(C)cc(C)c1 (centres undefined) | -16.1% | 29.1 µM [falling, partial curve, poor fit] | 0.0651 µM [falling, full curve, poor fit]
28 | CCN(C1CCCCC1)S(=O)(=O)c1cn(C)c(=O)n(C)c1=O | – | 6.51 µM [falling, partial curve] | –
29 | COc1ccc(Nc2cc(C(=O)NCCCN3CCOCC3)c3ccccc3n2)cc1OC | – | 1.46 µM [rising, partial curve] | –
30 | CN(C)c1ccc(C(=O)c2ccccc2C(=O)O)cc1[N+](=O)[O-] | -18.3% | 29.1 µM [falling, single point] | –
31 | O=C(c1ccccc1)n1c(=O)c(F)cn(COCCBr)c1=O | -6.88% | 13 µM [rising, partial curve] | –
32 | COc1cccc(C2C(C#N)=C(N)N(N(C)C)C3=C2C(=O)CC(C)(C)C3)c1OC (centres undefined) | 6.94% | – | –
33 | CC1CCCCC1NC(=O)/C(C#N)=C/c1ccc(F)c(F)c1 (centres undefined) | -8.92% | 0.206 µM [falling, full curve, poor fit] | –
34 | Cc1cccc(Nc2ncnc3ccccc23)c1 | – | – | 2.91 µM [rising, partial curve]
35 | Cc1ccc(NC(=O)Nc2ccc3c(c2)CCC3)c(C)c1 | 23.4% | – | –
36 | NS(=O)(=O)c1cccc2cccnc12 | 15.2% | – | –
37 | O=c1[nH]c(/C(Cl)=C/c2cccc(C(F)(F)F)c2)nc2cc(Cl)ccc12 | -17.8% | 3.26 µM [falling, single point] | 3.26 µM [falling, single point]
38 | CCOC(=O)C1=C(CC)OC(N)=C(C#N)C1c1cccs1 (centres undefined) | 1.61% | – | 0.116 µM [falling, full curve]
39 | O=c1nc(N2CCCCC2)nc2n1CCO2 | -23.1% | 29.1 µM [falling, single point] | –
40 | COc1cc(COc2ccc3c(C)c(Cc4ccccc4)c(=O)oc3c2)cc(OC)c1OC | – | – | 1.84 µM [rising, partial curve]
41 | O=C(c1ccco1)N1CCN(C(=O)c2ccc(-c3ccccc3Cl)o2)CC1 | -34.2% | – | 18.4 µM [falling, partial curve, poor fit]
42 | CCn1nnc(NC(=O)COc2ccc([N+](=O)[O-])cc2)n1 | 18.6% | 29.1 µM [rising, single point] | –
43 | Cc1cccnc1Nc1nc(-c2ccccn2)cs1 | -9.99% | 4.11 µM [falling, single point] | –
44 | CCN1CCn2c1nc(N1CCCCC1)nc2=O | – | – | 0.103 µM [falling, full curve, poor fit]

Filtered by structure: the compounds so far with a furan ring, fused or not (four)
Row | Compound | cell number change | AC50 [1] | AC50 [2]
5 | Cc1ccc(C(=O)N/N=C/c2ccc(-c3ccc(Br)cc3[N+](=O)[O-])o2)o1 | -33.4% | – | 29.1 µM [falling, single point]
18 | Cc1ccc(OCc2nnc(NC(=O)c3ccco3)s2)c(C)c1 | -12.4% | 0.651 µM [falling, single point] | –
21 | CC1(C)CC(NCCC(c2ccccc2)c2ccco2)CCO1 (centres undefined) | 14% | – | –
41 | O=C(c1ccco1)N1CCN(C(=O)c2ccc(-c3ccccc3Cl)o2)CC1 | -34.2% | – | 18.4 µM [falling, partial curve, poor fit]

The results go on:

Row | Compound | cell number change | AC50 [1] | AC50 [2]
45 | Nc1ccc(C(=O)NCC2(c3ccccc3)CCCC2)cc1 | 19.2% | 0.116 µM [rising, full curve] | 1.16 µM [rising, single point]
46 | CCCCn1c(N)c(N(C(=O)CSc2nnnn2-c2ccccc2)C2CCCC2)c(=O)[nH]c1=O | 5.18% | 2.06 µM [rising, single point] | –
47 | CCOC(=O)c1[nH]ncc1CN1CCCC(C(=O)c2cccc(OC(C)C)c2)C1 (centres undefined) | 28.6% | – | –
48 | CCN(CC)C(=S)NC(=O)c1ccc(F)cc1 | 0.656% | 6.51 µM [rising, single point] | –
49 | CCn1c(=O)c(=O)[nH]c2cc(C(=O)NC3CCCC3)ccc21 | -13.1% | 3.66 µM [falling, partial curve] | –
50 | O=C(Nc1cc(-c2nn(CC(=O)N3CCCCC3)c(=O)c3ccccc23)ccc1N1CCOCC1)c1ccc(Cl)cc1 | 30.2% | – | 1.03 µM [rising, full curve, poor fit]
51 | C[C@H](NC(=O)[C@@H]1CCC(=O)N1Cc1ccco1)c1ccccc1 | -15.3% | – | 3.26 µM [falling, single point]
52 | C=CCn1c(Cc2cccs2)nnc1SCC(=O)NCc1ccco1 | 5.22% | 0.116 µM [falling, full curve, poor fit] | –
53 | O=C(N/N=C\c1cccc(Cl)c1)c1n[nH]c2c1CCCC2 | -21.8% | 29.1 µM [falling, single point] | –
54 | O=C(Nc1cccc(S(=O)(=O)N2CCOCC2)c1)c1cc2c(s1)CCC2 | 11.9% | – | 0.092 µM [rising, full curve, poor fit]
55 | CCOC(=O)N1CCC(N2CCN(Cc3ccccc3)C(CCO)C2)CC1 (centres undefined) | -24.6% | 25.9 µM [falling, partial curve, poor fit] | –
56 | COc1ccc(OCCCC(=O)Nc2cc(S(=O)(=O)N3CCCCC3)ccc2OC)cc1 | -8.46% | 0.00517 µM [falling, full curve, poor fit] | –
57 | Cc1c(C)n(C)c2ccc(C(=O)NCCCN3CCN(c4ccccc4F)CC3)cc12 | 33.1% | 29.1 µM [rising, partial curve] | –
58 | COc1cccc(C2NC(C)(C(=O)O)C3C(=O)N(C(C)C)C(=O)C23)c1O (centres undefined) | -10.4% | 0.00517 µM [rising, full curve, poor fit] | –
59 | COc1ccc(N2CCN(C(CNC(=O)C(C)C)c3ccc4c(c3)OCO4)CC2)cc1 (centres undefined) | -10.1% | 0.58 µM [falling, single point] | –
60 | COc1ccccc1-c1noc(COC(=O)c2ccc(Br)o2)n1 | -23.5% | 8.2 µM [falling, partial curve, poor fit] | –
61 | O=C(/C=C/c1ccccc1)NCc1ccc2c(c1)OCO2 | 55.6% | – | 7.31 µM [rising, partial curve]
62 | CN(C)c1ccc(NC(=S)c2ccc3ccccc3n2)cc1 | -10.4% | 6.51 µM [falling, single point] | –
63 | O=C(COC(=O)Cn1cnc2ccccc2c1=O)NCCC1=CCCCC1 | -4.6% | – | 6.51 µM [falling, single point]
64 | c1ccc(CCCCN2CCN=C2Nc2ccccc2)cc1 | 18.6% | 18.4 µM [falling, single point] | 0.731 µM [falling, single point]
